A short description of the assay: qHTS Assay for Lipid Storage Modulators in Drosophila S3 Cells.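 For cell number change: cells counted by Cell Tracker Red CMTPX staining in the red channel.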 The settings on record: BODIPY lipid droplet fluorescence, 18-24 h; for cell number change: measured here: cell count max response, cells fed with added oleic acid. Summed up: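 Drosophila S3 cells got compounds at several concentrations plus oleic acid (400 uM solution). Laser-scanning cytometry with 488 nm excitation read lipid droplets at 500-530 nm and cells at 575-640 nm. Percent activity was relative to 20 uM Triacsin C.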

The mark [1] stands for this setting: measured here: lipid fluorescence (Fed channel) AC50, cells fed with added oleic acid.
Where [2] appears, read: measured here: cell number channel AC50, cells fed with added oleic acid.

This is one part of the list. These are further read-outs of the screen, such as a control signal, another cell line or another target. No call is given for them. Most of these compounds were active or inconclusive in the main read-out, so they are no random draw. Potencies come from curve fits of mixed quality, noted in brackets.

In the case of `COc1cccc(NC(=O)Nc2nnc(Cc3ccccc3)s2)c1`, the cell number change is -16.9%. Moreover, the concentration at half-maximal activity (AC50) under setting [1] was 14600 nM [falling, partial curve].

For `COc1ccc(/C=N/NC(=O)c2ccc3c(c2)NC(=O)C(C)(C)O3)cc1OC`, the cell number change is -4.78%. Besides, the AC50 under setting [1] was 2910 nM [rising, single point].

In the case of `Cc1ccccc1C(=O)NCC(=O)OC(C)C(=O)NCc1ccco1` (stereo unspecified), the cell number change is -15%.

With `CCSc1nsc(NC(=O)Nc2cccc(F)c2)n1`, the cell number change is -30.5%. For the same compound, the concentration at half-maximal activity (AC50) under setting [2] is 10300 nM [falling, single point]. Besides, under setting [1], the AC50 is 3660 nM [falling, single point].

On to `CC(C)(C)NC(=O)C(c1ccco1)N(Cc1ccc2c(c1)OCO2)C(=O)Cn1nnc2ccccc21` (stereo unspecified), for which the cell number change was -19.5%. In addition, the AC50 under setting [1] was 16.4 nM [rising, full curve, poor fit].

Turning to `CCN(CC(=O)Nc1ccc(OC)cc1)C(=O)c1ccc(N2CCCC2=O)cc1`, the cell number change is -5.64%. For the same compound, the concentration at half-maximal activity (AC50) under setting [1] was 580 nM [falling, single point].

As to `CC1CCN(S(=O)(=O)CCNC(=O)c2ccc3c(c2)OCO3)CC1`, the cell number change was -26.1%. Further, the half-maximal activity concentration (AC50) under setting [2] was 116 nM [falling, full curve, poor fit]. Besides, the AC50 under setting [1] was 92 nM [falling, full curve, poor fit].

On to `Cc1ccc2nc(NS(C)(=O)=O)sc2c1`, for which the cell number change stood at 0.819%. Also, under setting [1], the AC50 was 2310 nM [falling, partial curve].

Take `CC(=O)c1sc(N/N=C\c2ccc(C)cc2)nc1C`: the cell number change is -30.7%. The AC50 under setting [2] is 10300 nM [falling, single point]. Under setting [1], the AC50 is 580 nM [falling, single point].

On to `CC(C(=O)Nc1ccccc1)N(C)CCOc1ccc(Br)cc1` (stereo unspecified), for which the cell number change is 20.6%. For the same compound, the AC50 under setting [1] is 7310 nM [falling, partial curve, poor fit].

Turning to `Cc1ccc(COC(=O)CN2C(=O)NC3(CCCCC3C)C2=O)cc1` (stereo unspecified), the cell number change was -1.87%. In addition, the AC50 under setting [1] was 6510 nM [rising, single point].

For `O=C1c2ccccc2C(=O)N1CCSc1nnc(-c2ccco2)n1Cc1ccccc1`, the cell number change was -9.03%. Moreover, under setting [2], the AC50 was 164 nM [rising, full curve, poor fit]. In addition, the AC50 under setting [1] is 4110 nM [rising, partial curve].

`COc1ccc(Nc2ccccc2)c(C)c1`: the cell number change was -22.7%.

For `Cc1ccc(NC(=O)CSc2nc3ccccc3c3nc4ccccc4n23)cc1`, the cell number change was -16%. Under setting [2], the AC50 is 2590 nM [falling, partial curve]. Moreover, the half-maximal activity concentration (AC50) under setting [1] was 2310 nM [falling, full curve].

Turning to `CN1CC(c2ccccc2)C(c2ccc(Cl)cc2)=N1` (stereo unspecified), the cell number change was -9.66%. Under setting [1], the AC50 was 7310 nM [falling, partial curve].

As to `Cc1nc(-c2cc(-c3ccc(Cl)cc3)no2)cs1`, the cell number change is 4.96%.

Consider `CCOC(=O)NC(CC(=O)O)c1ccc(OC)cc1` (stereo unspecified), for which the cell number change was -16.5%.

Take `Cc1ccc(NC(=O)c2ccc3c(c2)C(=O)N(Cc2cccnc2)C3=O)c(C)c1`: the AC50 under setting [1] is 112 nM [rising, full curve, poor fit].

As for `Cc1cccc(N=Nc2c(C)nn(-c3ccccc3)c2N)c1C`, the cell number change is -4.3%. The half-maximal activity concentration (AC50) under setting [1] was 1840 nM [rising, partial curve].

On to `CNC(=S)NC1CC2CCCC(C1)N2Cc1ccc(C)cc1` (stereo unspecified), for which the cell number change is -12.2%.

For `Cc1cc(C)c2c(N)c3cccc(C)c3nc2n1`, the cell number change was -37.7%. Moreover, the concentration at half-maximal activity (AC50) under setting [2] was 580 nM [falling, full curve, poor fit]. The AC50 under setting [1] was 25900 nM [falling, single point].

With `Cc1sc(N2C(=O)C3C4C=CC(C4)C3C2=O)c(C#N)c1C` (stereo unspecified), the cell number change was -52.1%. Moreover, the concentration at half-maximal activity (AC50) under setting [2] was 25900 nM [falling, single point].

With `O=C(c1cc(COc2c(F)cccc2F)on1)N1CCN(C2CCCCC2)C(=O)C1`, the cell number change was determined as 22.9%. Further, the half-maximal activity concentration (AC50) under setting [1] was 4.11 nM [falling, full curve, poor fit].

Regarding `CC(C)n1nnnc1-c1ccc(Cl)cc1`, the cell number change was -24%. For the same compound, the concentration at half-maximal activity (AC50) under setting [1] was 5170 nM [falling, full curve, poor fit].

`CSc1ccc(CCNC(=O)CCc2nnc3ccc(N4CCOCC4)nn23)cc1`: the cell number change was 28.7%. Also, the half-maximal activity concentration (AC50) under setting [1] is 13000 nM [falling, single point].

With `Cc1ccc(S(=O)(=O)N(C)c2ccc(C(=O)O)cc2)cc1`, the cell number change came out at 2.77%. The half-maximal activity concentration (AC50) under setting [1] was 29100 nM [falling, partial curve, poor fit].

Turning to `CC(C)C(C(=O)NC(C)(C)C)N1C(=O)c2ccccc2C1=O` (stereo unspecified), the cell number change came out at 15.3%.

Take `Cc1ccc(NC(=O)CN2CCc3ccccc3C2)cc1S(=O)(=O)N1CCOCC1`: the cell number change came to 16.7%. Moreover, the concentration at half-maximal activity (AC50) under setting [1] is 4110 nM [rising, full curve, poor fit].

In the case of `c1ccc(-c2onc(-c3ccco3)c2-c2ccc3[nH]ccc3c2)cc1`, the cell number change is -25.6%. In addition, the half-maximal activity concentration (AC50) under setting [1] was 29100 nM [falling, single point].

`O=C1Nc2ccc(C(F)(F)F)cc2N2CCCC12` (stereo unspecified): the cell number change worked out at 2.16%. Besides, under setting [1], the AC50 is 411 nM [rising, full curve, poor fit].

Consider `CCNC(=O)/C(C#N)=C/c1c(N2CCN(Cc3ccc4c(c3)OCO4)CC2)nc2c(C)cccn2c1=O`, for which the cell number change stood at 15.1%. Under setting [1], the half-maximal activity concentration (AC50) is 1640 nM [rising, partial curve].

For the compound `O=[N+]([O-])c1ccc2nc(-[n+]3c(-c4ccccc4)cc(-c4ccccc4)cc3-c3ccccc3)[nH]c2c1`, the cell number change is -10.5%. The AC50 under setting [2] is 651 nM [rising, partial curve, poor fit]. Besides, the AC50 under setting [1] was 4610 nM [rising, partial curve].

Regarding `C/C(=N\NC(=O)c1cccc(N2CCCC2=O)c1)c1ccc(N)cc1`, the cell number change was -19.4%. In addition, the AC50 under setting [1] is 16400 nM [falling, single point].

Turning to `CCOc1cc(C2C(C(=O)c3ccc(C)cc3)=C(C(=O)OC)Nc3nnnn32)ccc1O` (stereo unspecified), the cell number change is -24.9%.

As to `CCc1ccc(-c2cc(C)no2)cc1S(=O)(=O)N1CCN(c2ccc(OC)cc2)CC1`, the cell number change amounted to 3.77%. Moreover, the AC50 under setting [1] is 2910 nM [rising, single point].

For the compound `O=C(c1c(F)cccc1F)N1CCCC(c2nc(-c3ccc(Cl)cc3)no2)C1` (stereo unspecified), the cell number change was -9.79%.

In the case of `O=C(NCCCN1CCOCC1)C1Cc2c(ccc3ccccc23)O1` (stereo unspecified), the cell number change was -24.6%.

As to `CC1CCN(CCNC(=O)C2CCCN(S(=O)(=O)c3cccc4nsnc34)C2)CC1` (stereo unspecified), the cell number change was -7.66%. Besides, under setting [1], the AC50 is 11.6 nM [falling, full curve, poor fit].

As to `C=CC[C@]12CCc3sccc3C1N(c1ccc(C(=O)OCC)cc1)C2=O` (stereo partly specified), the cell number change is -39.1%. Besides, the AC50 under setting [2] is 517 nM [falling, full curve]. For the same compound, the half-maximal activity concentration (AC50) under setting [1] was 411 nM [falling, full curve].

By AC50 is commonly meant the concentration at which the activity in the assay is half-maximal. Higher therefore signals weaker potency.

Source of the values: PubChem BioAssay AID2685 (National Center for Advancing Translational Sciences (NCATS), 2010).
